{
  "source": "patent US20120107601A1",
  "about": "“SYSTEMS AND METHODS OF TEMPLATING USING PARTICLES SUCH AS COLLOIDAL PARTICLES” (President and Fellows of Harvard College, priority 2009, published 2012)",
  "procedure": "To ensure that the introduction of the hydrophobic compounds into the template structure would not lead to rearrangement of the particles in the 3D array, some of the templates were sintered prior to the introduction step. Sintering temperatures between 700 and 1200° C. were used to evaluate the conditions needed to form strong interparticle necks without distorting the initial packed structure. Sintering was accomplished under a O2 gas flow of 0.7 L/min (Thermo Scientific Lindberg Blue M Three-Zone Tube Furnace, Cole-Parmer, Vernon Hills, Ill., USA) applying a dwell time period of 2 hours. Introduction of the hydrophobic compounds into the interstices of the packed array of particles was accomplished by first placing the template on a hot plate at a predetermined temperature and afterwards depositing the powdery hydrophobic compound on the top of the heated template. The temperature of the hot plate was adjusted to enable melting of the hydrophobic compound on the template surface. Once in liquid form, the compound was sucked into the interstices of the template structure by capillary forces. […] After fluid introduction, the templates were removed from the hot plate and cooled in air at ambient temperature. The fluid-introduced templates were finally fractured to enable evaluation of the fluid-introduction efficiency in an electron microscope. […]",
  "data": [
    {"smiles": "C(=C\\c1ccccc1)/CN1CCN(C(c2ccccc2)c2ccccc2)CC1", "note": "[cinnarizine]", "values": [
      {"measurement": "visible color change upon melting and infiltration into the composites", "value": "no visible color change"}
    ]}
  ]
}
